Data published in paper PMC7668044, “Insights into bacterial cell division from a structure of EnvC bound to the FtsX periplasmic domain” (Proceedings of the National Academy of Sciences of the …, 2020).
Results are given in words; binding and its absence hold for the method and conditions named. Binding calls can cover weak binding; strength is not graded here. Sequences can lack the tags named with a protein.

Target: NlpD LytM domain, bacterial two-hybrid fusion
Assay: two-hybrid; bacterial adenylate cyclase two hybrid (BACTH) system; E. coli BTH101 cells grown on IPTG/X-gal LB plates at room temperature; coloration followed over a time course

B1: AmiC, bacterial two-hybrid fusion (enzyme, UniProt P63883 1-417)
chain: MSGSNTAISRRRLLQGAGAMWLLSVSQVSLAAVSQVVAVRVWPASSYTRVTVESNRQLKYKQFALSNPERVVVDIEDVNLNSVLKGMAAQIRADDPFIKSARVGQFDPQTVRMVFELKQNVKPQLFALAPVAGFKERLVMDLYPANAQDMQDPLLALLEDYNKGDLEKQVPPAQSGPQPGKAGRDRPIVIMLDPGHGGEDSGAVGKYKTREKDVVLQIARRLRSLIEKEGNMKVYMTRNEDIFIPLQVRVAKAQKQRADLFVSIHADAFTSRQPSGSSVFALSTKGATSTAAKYLAQTQNASDLIGGVSKSGDRYVDHTMFDMVQSLTIADSLKFGKAVLNKLGKINKLHKNQVEQAGFAVLKAPDIPSILVETAFISNVEEERKLKTATFQQEVAESILAGIKAYFADGATLARRG
With B1 the binding was “binds”.
